Results on six compounds are retold here after the supplement of paper PMC4604168 (melanoma cell lines).

The list shows a part of the results. Single values are uncertain, as repeats are few or missing.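 The apoptosis fraction was the count of cleaved-PARP antibody-stained nuclei relative to all DNA-stained nuclei, imaged in 1,536-well plates. Screening doses were set so most cells survived, and baseline and induced cleaved-PARP levels vary greatly across cell lines.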

In this test the test system is G361. Put plainly: cleaved PARP positive nuclei fraction relative to DMSO control; melanoma cells; higher = more apoptosis. Conditions: library dose: low library concentration; 72 h.
`CN(C)S(=O)(=O)c1ccc2c(c1)/C(=C/c1cc3c([nH]1)CCCC3)C(=O)N2` + COc1cc2ncnc(Nc3ccc(Oc4ccccc4)cc3)c2cc1OC [SrcI1] (first compound 0.4 µM, partner dose 2 µM): the “cleaved PARP positive nuclei fraction” value stood at 34.3%. In the case of `NCC(=O)Nc1ccc(-n2nc(C(F)(F)F)cc2-c2ccc3c(ccc4ccccc43)c2)cc1` + Cn1cc(/C=C2\C(=O)Nc3cccnc32)c2ccccc21 [GW441756] (first compound 1 µM, partner dose 0.4 µM) it was 89.2%; in that of `O=C(Nc1ccccc1)c1cc([N+](=O)[O-])ccc1Cl` + Oc1cc(-c2nc(-c3ccccc3)[nH]c2-c2ccncc2)ccc1Cl [L779450] (first compound 2 µM, partner dose 0.2 µM), 105%. With `O=C1NC(=O)/C(=C/c2ccc(-c3ccc(F)cc3O)o2)S1` + c1cc(-c2cnn3cc(-c4ccc(OCCN5CCCCC5)cc4)cnc23)ccn1 [Dorsomorphin] (first compound 1 µM, partner dose 0.4 µM), the “cleaved PARP positive nuclei fraction” value was 146%.

For `COC(=O)c1sccc1S(=O)(=O)Nc1ccc(Nc2ccccc2)cc1OC` + COc1ccc(COc2ccc(Cc3cnc(N)nc3N)cc2OC)cc1 [GW2580] (first compound 1 µM, partner dose 1 µM), the “cleaved PARP positive nuclei fraction” value came out at 129%. For the compound `COc1cc2c(Oc3ccc4[nH]c(C)cc4c3F)ncnc2cc1OCCCN1CCCC1` [cediranib] + CCN(CC)CCCCNc1ncc2cc(-c3cc(OC)cc(OC)c3)c(NC(=O)NC(C)(C)C)nc2n1 [PD173074] (first compound 0.4 µM, partner dose 0.1 µM), the “cleaved PARP positive nuclei fraction” value turned out to be 112%.
